PubChem BioAssay AID1224828 | NIAID, 2016
This is an unselected part of about 17,000 reagents tested. 762 of them (4.5%) were called active. 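Active calls include both raised and lowered p65 entry, mostly lowered; wells with fewer than 50 cells lack a z-score.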 The raw values are shown without normalisation. Reagent sequences are not shown.

Aim: 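Regulators linking TLR4 signalling to p65 nuclear translocation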 (primary screen)
System: mouse RAW264.7 G9 macrophage reporter cells (GFP-p65, Tnf promoter-mCherry)
Reagents: siRNA pool against mouse genes, 100 nM
Time to read-out: 2 days siRNA transfection, then 40 min LPS before fixation
Conditions: LPS (Salmonella minnesota R595) at 10 ng/ml
Measured: 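Microscopy ratio of nuclear to perinuclear-ring GFP-p65 signal, scaled to the plate median; gene score is the average of two replicate robust z-scores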
Scale: p65 translocation robust z-score: higher = more nuclear NF-kappaB p65 after LPS than the plate median; nuclear/cytoplasmic p65 ratio: higher = more nuclear NF-kappaB p65
Rule for the call: 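Active if robust z is above 3.3 (negative regulators) or below -1.56, the Tlr4 control median (positive regulators); activity score 50 or more; control wells not called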
Calls: active = hit (p65 shift raised or lowered); inactive = no clear change

Gene,p65 translocation robust z-score,"nuclear/cytoplasmic p65 ratio, rep 1","nuclear/cytoplasmic p65 ratio, rep 2",low cell count flag,Outcome
Hoxd3 (GeneID 15434),-1.87,1.15,1.17,enough cells to score,active
Mtdh (GeneID 67154),0.81,1.51,1.56,enough cells to score,inactive
Fgf11 (GeneID 14166),-0.61,1.26,1.38,enough cells to score,inactive
Tpbg (GeneID 21983),0.03,1.57,1.48,enough cells to score,inactive
Smim8 (GeneID 66291),0.29,1.39,1.35,enough cells to score,inactive
Cmtm3 (GeneID 68119),-0.43,1.52,1.72,enough cells to score,inactive
Itga11 (GeneID 319480),0.74,1.49,1.56,enough cells to score,inactive
Banf2 (GeneID 403171),0.74,1.33,1.39,enough cells to score,inactive
Mboat7 (GeneID 77582),-0.89,1.47,1.49,enough cells to score,inactive
Arl6ip6 (GeneID 65103),-0.12,1.58,1.5,enough cells to score,inactive
Xcr1 (GeneID 23832),0.88,1.55,1.8,enough cells to score,inactive
Or52e3 (GeneID 258246),-1.15,1.29,1.22,enough cells to score,inactive
Cfb (GeneID 14962),-0.51,1.1,1.33,enough cells to score,inactive
Tcerg1l (GeneID 70571),-1.28,1.14,1.35,enough cells to score,inactive
Sry (GeneID 21674),-0.71,1.27,1.2,enough cells to score,inactive
Uhmk1 (GeneID 16589),1.7,2,1.55,enough cells to score,inactive
Spic (GeneID 20728),0.05,1.52,1.6,enough cells to score,inactive
Gfpt2 (GeneID 14584),-0.28,1.53,1.6,enough cells to score,inactive
Csn1s2a (GeneID 12993),-3.05,1.1,1.31,enough cells to score,active
Plekha1 (GeneID 101476),0.29,1.7,1.62,enough cells to score,inactive
Ptgs2 (GeneID 19225),-1.03,1.38,1.25,enough cells to score,inactive
Slx4ip (GeneID 74243),0.6,1.4,1.38,enough cells to score,inactive
Sfxn4 (GeneID 94281),,1.35,1.33,fewer than 50 cells per well; well left out of scoring,inactive

Next part; the last 4 above are carried over.
Gene,p65 translocation robust z-score,"nuclear/cytoplasmic p65 ratio, rep 1","nuclear/cytoplasmic p65 ratio, rep 2",low cell count flag,Outcome
Plekha1 (GeneID 101476),0.29,1.7,1.62,enough cells to score,inactive
Ptgs2 (GeneID 19225),-1.03,1.38,1.25,enough cells to score,inactive
Slx4ip (GeneID 74243),0.6,1.4,1.38,enough cells to score,inactive
Sfxn4 (GeneID 94281),,1.35,1.33,fewer than 50 cells per well; well left out of scoring,inactive
Plekhh3 (GeneID 217198),-0.66,1.52,1.51,enough cells to score,inactive
Pdss1 (GeneID 56075),,1.44,1.3,fewer than 50 cells per well; well left out of scoring,inactive
Wnt10b (GeneID 22410),0.07,1.58,1.63,enough cells to score,inactive
4933430I17Rik (GeneID 214106),-0.74,1.32,1.31,enough cells to score,inactive
Il2 (GeneID 16183),,1.73,1.42,fewer than 50 cells per well; well left out of scoring,inactive
Phf8 (GeneID 320595),1.56,1.59,1.42,enough cells to score,inactive
Pdcl3 (GeneID 68833),-2.13,1.08,1.06,enough cells to score,active
Tmem39b (GeneID 230770),-0.68,1.46,1.44,enough cells to score,inactive
Apln (GeneID 30878),0.29,1.55,1.64,enough cells to score,inactive
C1qtnf6 (GeneID 72709),0.66,1.46,1.68,enough cells to score,inactive
Tfpi (GeneID 21788),-0.57,1.47,1.4,enough cells to score,inactive
Pgk1 (GeneID 18655),-0.1,1.8,1.26,enough cells to score,inactive
Vmn1r75 (GeneID 171241),,1.51,1.21,fewer than 50 cells per well; well left out of scoring,inactive
Neil3 (GeneID 234258),-0.15,1.5,1.82,enough cells to score,inactive
Ephb4 (GeneID 13846),1.87,1.99,1.62,enough cells to score,inactive
Or10d1 (GeneID 258501),-0.17,1.33,1.22,enough cells to score,inactive
Fam114a2 (GeneID 67726),,1.16,1.18,fewer than 50 cells per well; well left out of scoring,inactive
